According to the supplement of paper PMC4604168 (melanoma cell lines):
The other results are listed elsewhere or left out. Many values rest on one well or one pass, so single values are uncertain.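 The apoptosis fraction was the count of cleaved-PARP antibody-stained nuclei relative to all DNA-stained nuclei, imaged in 1,536-well plates. Screening doses were set so most cells survived, and baseline and induced cleaved-PARP levels vary greatly across cell lines.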

Experiments:
Experiment in all cases: cleaved PARP positive nuclei fraction relative to DMSO control; melanoma cells; higher = more apoptosis
Details in all cases: library dose: low library concentration; 72 h
[1] = system: MZ2-MEL
[2] = system: MeWo
[3] = system: RPMI7951
[4] = system: RVH-421
[5] = system: SkMel28
[6] = system: SkMel2
[7] = system: SkMel30
[8] = system: UACC62
[9] = system: WM115
[10] = system: WM1716
[11] = system: WM1745
[12] = system: WM3526
[13] = system: WM3619
[14] = system: WM451Lu

Row | SMILES | cleaved PARP positive nuclei fraction [1] | cleaved PARP positive nuclei fraction [2] | cleaved PARP positive nuclei fraction [3] | cleaved PARP positive nuclei fraction [4] | cleaved PARP positive nuclei fraction [5] | cleaved PARP positive nuclei fraction [6] | cleaved PARP positive nuclei fraction [7] | cleaved PARP positive nuclei fraction [8] | cleaved PARP positive nuclei fraction [9] | cleaved PARP positive nuclei fraction [10] | cleaved PARP positive nuclei fraction [11] | cleaved PARP positive nuclei fraction [12] | cleaved PARP positive nuclei fraction [13] | cleaved PARP positive nuclei fraction [14]
1 | CN1CCN(c2ccc3nc(-c4c(N)c5c(F)cccc5[nH]c4=O)[nH]c3c2)CC1 [Dovitinib] + C=CCNC1=C2C[C@@H](C)C[C@H](OC)[C@H](O)[C@@H](C)/C=C(\C)[C@H](OC(N)=O)[C@@H](OC)/C=C\C=C(/C)C(=O)NC(=CC1=O)C2=O [Tanespimycin] (first compound 0.1 µM, partner dose 0.002 µM) | 86.4% | 118% | 72.1% | 74.9% | 46.8% | 54.7% | 317% | 133% | 61.4% | 156% | 93.5% | 147% | 100% | 28.5%
2 | O=C(O)c1ccc2c(c1)nc(Nc1cccc(Cl)c1)c1ccncc12 + Clc1ccc(Nc2nnc(Cc3ccncc3)c3ccccc23)cc1 [vatalanib] (first compound 0.4 µM, partner dose 2 µM) | 219% | 191% | 511% | 49.1% | 36.3% | 146% | 161% | 41.3% | 113% | 128% | 100% | 199% | 111% | 144%
3 | CCCS(=O)(=O)Nc1ccc(F)c(C(=O)c2c[nH]c3ncc(Cl)cc23)c1F + Nc1nc(F)nc2c1ncn2[C@@H]1O[C@H](CO)[C@@H](O)[C@@H]1O [fludarabine] (first compound 0.08 µM, partner dose 0.2 µM) | 105% | 862% | 87.2% | 153% | 205% | 689% | 956% | 234% | 144% | 111% | 90.4% | 2120% | 101% | 386%
4 | Cn1c(=O)n(-c2ccc(C(C)(C)C#N)cc2)c2c3cc(-c4cnc5ccccc5c4)ccc3ncc21 + C[C@@H](Oc1cc(-c2cnn(C3CCNCC3)c2)cnc1N)c1c(Cl)ccc(F)c1Cl [Crizotinib] (first compound 0.004 µM, partner dose 0.2 µM) | 71.5% | 114% | 44% | 30.3% | 87.6% | 113% | 58.8% | 30.6% | 124% | 18.8% | 102% | 123% | 113% | 91.6%
